The source of these data is patent publication US20160032013A1.

Amino acid sequences for entries named in this document (tags omitted). A change or cut given only in a name is not applied to a line headed by its entry.
UniProt P26928: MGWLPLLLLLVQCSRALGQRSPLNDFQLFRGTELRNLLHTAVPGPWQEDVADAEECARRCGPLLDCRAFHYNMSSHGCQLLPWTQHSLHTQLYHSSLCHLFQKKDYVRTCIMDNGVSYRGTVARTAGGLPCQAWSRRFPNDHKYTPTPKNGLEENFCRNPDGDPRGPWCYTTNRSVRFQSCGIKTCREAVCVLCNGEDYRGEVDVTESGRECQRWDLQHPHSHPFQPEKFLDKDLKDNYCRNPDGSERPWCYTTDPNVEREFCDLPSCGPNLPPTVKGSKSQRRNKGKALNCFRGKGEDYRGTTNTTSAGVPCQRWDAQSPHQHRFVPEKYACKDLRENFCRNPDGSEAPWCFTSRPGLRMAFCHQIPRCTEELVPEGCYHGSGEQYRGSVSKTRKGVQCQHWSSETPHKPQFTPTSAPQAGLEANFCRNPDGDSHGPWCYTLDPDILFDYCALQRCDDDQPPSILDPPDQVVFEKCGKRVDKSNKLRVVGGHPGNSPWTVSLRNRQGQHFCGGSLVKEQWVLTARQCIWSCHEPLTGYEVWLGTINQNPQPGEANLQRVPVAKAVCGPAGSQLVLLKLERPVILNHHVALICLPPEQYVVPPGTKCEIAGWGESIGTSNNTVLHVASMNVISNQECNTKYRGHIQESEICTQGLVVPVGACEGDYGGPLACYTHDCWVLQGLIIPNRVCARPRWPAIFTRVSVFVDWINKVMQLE

No constants are given. Whether binding was seen depends on the method and setting. Some results given as binding are weak or reduced against the parent protein; the word gives no strength.

In the assay the target is Mouse RON-hIgG1 Fc (murine RON Sema/PSI/IPT1, natural leader + R33-V684, fused to human IgG1 Fc) (mouse). The experiment in a line: plate ELISA: mRON-hFc coated at 2 ug/ml, His-tagged murine MSP β at 0.1 ug/ml, anti-His-HRP.

“Hexahistidine-tagged murine MSP β (HGF leader + V489-E716 + C593A + C677A + His tag) (from UniProt P26928 489-713) (ligand)”: the binding entry is recorded as “binds”.
